Results from PubChem BioAssay AID624297 (National Center for Advancing Translational Sciences (NCATS), 2012).
In all, about 340,000 compounds went through this assay and about 6,200 (1.8%) were called active. The inconclusive results got no clear call from the source; some entries with a clear call stand among them for comparison. The call rests on the fitted dose curve; in most records, active means well fitted activation curve with a large enough effect; inconclusive means small, poorly fitted or top-dose-only effect; inactive means no such curve, though single readings can be large or run the other way. Where the call is inconclusive, the potency comes from a doubtful curve fit.

Experiment: A quantitative high throughput screen for small molecules that induce DNA re-replication in SW480 colon adenocarcinoma cells. Further: nearly all actives have a fitted effect of over 55% in size. On re-replication activation: % of control where 0% means no effect.
Details: Hoechst DNA content imaging, 48 h; re-replication activation: at 46.1 µM (top of the series)
Procedure, shortened: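 Quantitative HTS format with DMSO vehicle controls; 48 hr drug incubation at 37 C, then 40 min Hoechst staining and scanning imager measurement at 405 nm excitation.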
Potency means the concentration at half of the fitted maximal effect.

Row | Structure (SMILES) | Potency | re-replication activation
1 | CCn1c(-c2ccccc2)ccc(C#N)c1=O | inconclusive: 6.51 µM [activator, single point] | 
2 | Cc1[nH]n(-c2ccccc2)c(=O)c1/C=N/O | inconclusive: 32.6 µM [activator, partial curve, poor fit] | 
3 | O=C(Nc1cc(N2CCCCC2)ncn1)c1ccccc1 |  | inactive: -100%
4 | C[C@H]1CN([C@@H](C)CO)C(=O)Cc2cc(NS(=O)(=O)c3cccs3)ccc2O[C@H]1CN(C)S(=O)(=O)c1cn(C)cn1 |  | inactive: -3.54%
5 | COc1ccc(OC)c(NC(=O)Cc2coc3ccc4ccccc4c23)c1 |  | inactive: -2.84% [at 9.22 µM]
6 | Cc1ccc(S(=O)(=O)N2C[C@@H]3CCCC[C@@H]3[C@@H](C)[C@H]2c2cn(Cc3ccccc3)c3ccc(F)cc23)cc1 | inconclusive: 18.4 µM [activator, single point] | 
7 | Cc1cccc(Nc2nnc(SCC(=O)NC3CCCc4ccccc43)s2)c1 (stereo not given) |  | inactive: -4.41%
8 | CCCCCCOC(=O)C(C#N)c1nc2ccccc2nc1N1CCN(C)CC1 (stereo not given) | inconclusive: 29.1 µM [activator, single point] | 
9 | O=C(CCc1cn2ccccc2n1)NC1CCCc2c1cnn2-c1ccccc1F (stereo not given) | inconclusive: 0.411 µM [activator, full curve, poor fit] | 
10 | COc1cc(C(c2c(C(=O)O)[nH]c3ccccc23)c2c(C(=O)O)[nH]c3ccccc23)ccc1OCc1ccccc1 |  | inactive: 3%
11 | N#CC(C#N)=C/C=C(\Nc1ccc(Cl)cc1)c1ccc(Cl)cc1 |  | inactive: -1.53%
12 | CCc1ccc(-c2csc(NC(=O)C3CCCO3)c2C(=O)OC(C)C)cc1 (stereo not given) | inconclusive: 29.1 µM [activator, single point] | 
13 | O=C1Cc2ccccc2Sc2c(OCCN3CCCCC3)cccc21 | inconclusive: 18.4 µM [activator, single point] | 
14 | COC(=O)[C@@]12CCCCN1[C@H](c1ccc(-c3ccc4c(c3)OCO4)cc1)[C@H]1C(=O)N(C)C(=O)[C@H]12 |  | inactive: 1.64%
15 | O=C(NCc1ccco1)c1cc([N+](=O)[O-])ccc1N1CCCCC1 |  | inactive: 3.05%
16 | COc1ccc2nc(C)cc(Sc3nc4ccccc4s3)c2c1 | inconclusive: 18.4 µM [activator, single point] | 
17 | CCn1c2ccccc2c2cc(/C=N/NC(=O)c3ccncc3)ccc21 | inconclusive: 13 µM [activator, partial curve, poor fit] | 
18 | COc1ccccc1NC(=O)c1c(O)c2ccccc2[nH]c1=O |  | inconclusive: 43.6% [activator]

Molecules listed so far that have a furan ring, fused or not, in the order listed:
Row | Structure (SMILES) | Potency | re-replication activation
5 | COc1ccc(OC)c(NC(=O)Cc2coc3ccc4ccccc4c23)c1 |  | inactive: -2.84% [at 9.22 µM]
15 | O=C(NCc1ccco1)c1cc([N+](=O)[O-])ccc1N1CCCCC1 |  | inactive: 3.05%

Further entries follow.

Row | Structure (SMILES) | Potency | re-replication activation
19 | CCCn1nnc(NC(=O)c2cc3ccccc3o2)n1 |  | inactive: -7.77%
20 | COC(=O)CNC(c1ccccc1)c1cc(Br)ccc1N (stereo not given) |  | inactive: -0.915%
21 | CC(C)=CCC12Oc3cc(O)ccc3C1(O)Oc1cc(O)c([C@H]3C=C(C)CC(c4ccc(O)cc4O)[C@H]3C(=O)c3ccc(O)cc3O)c(O)c1C2=O (stereo not given in full) |  | inactive: -18.4%
22 | Oc1ccc(/C=N/N(Cc2ccccc2)c2ccccc2)c(O)c1O | inconclusive: 18.4 µM [activator, single point] | 
23 | CC(C)(C)c1ccc(OCc2ccc(C(=O)N3CCOCC3)o2)cc1 | inconclusive: 1.16 µM [activator, full curve, poor fit] | 
24 | O=C(CN1C2CCCC1CC(NC(=O)c1ccccc1)C2)Nc1nccs1 (stereo not given) |  | inactive: -1.7%
25 | CC1=NN(C(N)=S)C(=O)C1N=Nc1ccccc1C (stereo not given) | inconclusive: 6.51 µM [activator, single point] | 
26 | CCOc1ccc(NC(=O)C2=NN(c3ccccc3)C(=O)CC2)cc1S(=O)(=O)N1CCCCC1 |  | inactive: -3.16%
27 | COc1cc(/C=N/Nc2nc(Nc3ccc(C)cc3)nc(-n3nc(C)cc3C)n2)cc(OC)c1OC | active: 13 µM | 
28 | O=C(c1ccccc1Br)N1CCN(c2ccccn2)CC1 |  | inactive: -0.662%
29 | CCOc1ccc(S(=O)(=O)Nc2cccc(OC)c2)cc1 | inconclusive: 29.1 µM [activator, single point] | 
30 | OCCC1CN(Cc2cnc(-c3cccc4ccccc34)nc2)CCN1C1CCCCC1 (stereo not given) | active: 1.84 µM | 
31 | Cc1cc(C)n2nc(C(=O)Nc3cccc(S(=O)(=O)N4CCOCC4)c3)nc2n1 | inconclusive: 18.4 µM [activator, single point] | 
32 | COc1ccc2cc3cc(C(=O)NCc4ccc5c(c4)OCO5)oc3nc2c1 |  | inactive: -6.25%
33 | O=C(NCc1cccs1)c1nc2c(nnn2Cc2ccccc2Cl)c(=O)[nH]1 | inconclusive: 7.31 µM [activator, partial curve] | 
34 | CCCc1nc(SCC(=O)Nc2cc(C)on2)c2ccccc2n1 | inconclusive: 29.1 µM [activator, single point] | 
35 | O=C(NC1CC1)c1cccc2c1C(=O)c1ccc(N3CCC(Cc4ccccc4)CC3)cc1S2(=O)=O | inconclusive: 7.31 µM [activator, partial curve, poor fit] | 
